Assay results reported in the supplement of paper PMC6411743.
± gives the standard deviation of the averaged measurements. The entries are a selection whose mix differs from that of the whole data set.

Sequences of proteins named here, by UniProt entry; tags and fusion partners are left off. A change or cut given only in a name is not applied to a line headed by its entry.
UniProt Q3MIT2: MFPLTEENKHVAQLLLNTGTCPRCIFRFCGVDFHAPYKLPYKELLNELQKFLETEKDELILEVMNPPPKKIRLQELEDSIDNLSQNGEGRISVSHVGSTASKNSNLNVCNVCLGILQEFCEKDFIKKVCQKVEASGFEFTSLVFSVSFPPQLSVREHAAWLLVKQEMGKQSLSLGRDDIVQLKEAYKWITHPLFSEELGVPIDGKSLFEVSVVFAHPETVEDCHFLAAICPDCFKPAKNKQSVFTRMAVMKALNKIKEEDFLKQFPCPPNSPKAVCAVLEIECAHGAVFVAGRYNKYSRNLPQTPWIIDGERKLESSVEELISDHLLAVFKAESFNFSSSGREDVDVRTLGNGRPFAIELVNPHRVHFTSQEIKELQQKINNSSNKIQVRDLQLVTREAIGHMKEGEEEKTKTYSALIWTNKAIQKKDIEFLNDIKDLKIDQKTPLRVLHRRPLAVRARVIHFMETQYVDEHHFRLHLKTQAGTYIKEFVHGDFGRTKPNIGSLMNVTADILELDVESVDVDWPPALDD
UniProt Q59H18: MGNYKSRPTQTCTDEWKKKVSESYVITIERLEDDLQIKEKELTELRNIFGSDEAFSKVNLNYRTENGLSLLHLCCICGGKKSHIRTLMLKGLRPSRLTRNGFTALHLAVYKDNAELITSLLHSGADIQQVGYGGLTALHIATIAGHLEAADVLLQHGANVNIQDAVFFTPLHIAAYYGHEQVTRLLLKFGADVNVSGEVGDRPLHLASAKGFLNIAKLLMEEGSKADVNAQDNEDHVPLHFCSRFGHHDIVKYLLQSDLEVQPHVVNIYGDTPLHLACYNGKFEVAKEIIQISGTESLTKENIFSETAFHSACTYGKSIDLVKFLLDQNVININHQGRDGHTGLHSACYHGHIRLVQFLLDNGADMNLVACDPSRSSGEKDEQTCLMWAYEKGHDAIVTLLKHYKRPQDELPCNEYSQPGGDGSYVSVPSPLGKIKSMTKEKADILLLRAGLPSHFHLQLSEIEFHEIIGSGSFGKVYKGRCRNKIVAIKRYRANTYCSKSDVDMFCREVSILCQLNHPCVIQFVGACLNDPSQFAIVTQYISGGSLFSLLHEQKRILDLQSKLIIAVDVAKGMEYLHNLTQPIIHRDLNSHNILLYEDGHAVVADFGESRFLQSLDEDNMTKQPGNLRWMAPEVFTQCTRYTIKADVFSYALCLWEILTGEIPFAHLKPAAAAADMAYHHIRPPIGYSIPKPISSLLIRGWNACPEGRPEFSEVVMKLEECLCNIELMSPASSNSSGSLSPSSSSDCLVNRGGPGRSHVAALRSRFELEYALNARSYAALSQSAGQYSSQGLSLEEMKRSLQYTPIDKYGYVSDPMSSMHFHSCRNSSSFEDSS
UniProt Q15785: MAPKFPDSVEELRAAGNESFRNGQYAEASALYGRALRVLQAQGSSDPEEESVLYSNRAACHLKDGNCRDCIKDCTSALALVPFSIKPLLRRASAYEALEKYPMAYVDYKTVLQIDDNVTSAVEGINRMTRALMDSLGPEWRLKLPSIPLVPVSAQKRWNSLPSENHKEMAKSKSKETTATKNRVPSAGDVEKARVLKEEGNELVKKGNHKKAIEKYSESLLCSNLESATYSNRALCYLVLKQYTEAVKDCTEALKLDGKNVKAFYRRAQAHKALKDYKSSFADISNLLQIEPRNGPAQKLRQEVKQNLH
UniProt Q17RN3: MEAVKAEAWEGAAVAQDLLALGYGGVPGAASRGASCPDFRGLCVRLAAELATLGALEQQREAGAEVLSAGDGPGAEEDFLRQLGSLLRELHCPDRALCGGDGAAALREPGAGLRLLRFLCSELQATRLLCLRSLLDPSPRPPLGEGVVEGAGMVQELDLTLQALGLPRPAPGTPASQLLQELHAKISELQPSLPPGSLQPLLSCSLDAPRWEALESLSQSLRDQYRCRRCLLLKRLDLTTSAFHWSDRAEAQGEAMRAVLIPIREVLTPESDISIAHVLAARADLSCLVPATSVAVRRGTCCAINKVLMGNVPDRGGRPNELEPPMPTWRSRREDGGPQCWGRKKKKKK
UniProt Q9H3S1: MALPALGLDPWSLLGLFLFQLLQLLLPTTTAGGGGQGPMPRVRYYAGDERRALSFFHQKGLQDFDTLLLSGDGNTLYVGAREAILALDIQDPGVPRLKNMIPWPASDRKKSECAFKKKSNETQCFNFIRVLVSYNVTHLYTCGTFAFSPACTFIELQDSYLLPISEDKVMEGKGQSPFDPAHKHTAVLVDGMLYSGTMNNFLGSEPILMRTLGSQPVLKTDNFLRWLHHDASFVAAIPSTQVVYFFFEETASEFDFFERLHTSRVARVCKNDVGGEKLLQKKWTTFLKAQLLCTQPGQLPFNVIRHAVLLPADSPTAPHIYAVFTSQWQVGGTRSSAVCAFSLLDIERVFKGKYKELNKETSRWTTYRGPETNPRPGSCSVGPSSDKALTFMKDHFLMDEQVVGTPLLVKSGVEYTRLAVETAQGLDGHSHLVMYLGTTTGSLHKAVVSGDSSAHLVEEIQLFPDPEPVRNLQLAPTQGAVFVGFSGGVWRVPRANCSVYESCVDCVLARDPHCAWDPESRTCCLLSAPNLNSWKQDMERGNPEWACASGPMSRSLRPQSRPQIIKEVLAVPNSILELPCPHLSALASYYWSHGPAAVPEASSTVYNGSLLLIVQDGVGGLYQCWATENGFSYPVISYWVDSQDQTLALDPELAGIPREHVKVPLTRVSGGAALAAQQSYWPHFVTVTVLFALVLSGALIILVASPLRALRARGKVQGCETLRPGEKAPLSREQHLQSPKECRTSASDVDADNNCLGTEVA
UniProt Q56VL3: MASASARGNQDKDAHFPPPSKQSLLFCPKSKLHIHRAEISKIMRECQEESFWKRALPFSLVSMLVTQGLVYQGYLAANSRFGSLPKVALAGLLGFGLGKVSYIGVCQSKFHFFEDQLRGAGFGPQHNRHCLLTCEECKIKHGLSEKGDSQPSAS
UniProt Q4KMP7: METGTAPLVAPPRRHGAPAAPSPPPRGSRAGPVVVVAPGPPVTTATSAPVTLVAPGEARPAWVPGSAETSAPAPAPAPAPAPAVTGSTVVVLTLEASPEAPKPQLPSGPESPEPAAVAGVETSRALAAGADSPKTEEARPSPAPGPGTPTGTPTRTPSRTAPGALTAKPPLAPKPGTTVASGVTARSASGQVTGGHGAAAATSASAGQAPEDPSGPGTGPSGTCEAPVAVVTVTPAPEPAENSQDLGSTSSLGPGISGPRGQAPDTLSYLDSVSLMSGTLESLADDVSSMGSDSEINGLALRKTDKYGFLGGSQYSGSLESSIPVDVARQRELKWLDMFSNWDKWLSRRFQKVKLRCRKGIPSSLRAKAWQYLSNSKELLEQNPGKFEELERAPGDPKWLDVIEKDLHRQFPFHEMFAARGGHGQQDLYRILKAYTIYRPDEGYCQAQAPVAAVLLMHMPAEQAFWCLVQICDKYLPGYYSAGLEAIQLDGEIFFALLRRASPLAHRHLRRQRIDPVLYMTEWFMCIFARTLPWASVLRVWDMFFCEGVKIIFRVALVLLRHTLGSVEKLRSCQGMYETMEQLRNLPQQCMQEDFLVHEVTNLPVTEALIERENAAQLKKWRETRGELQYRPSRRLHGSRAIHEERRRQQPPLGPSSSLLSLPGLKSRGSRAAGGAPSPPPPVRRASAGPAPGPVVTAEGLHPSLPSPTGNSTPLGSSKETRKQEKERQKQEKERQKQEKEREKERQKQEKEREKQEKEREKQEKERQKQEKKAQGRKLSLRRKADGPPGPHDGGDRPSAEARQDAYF
UniProt Q53GT1: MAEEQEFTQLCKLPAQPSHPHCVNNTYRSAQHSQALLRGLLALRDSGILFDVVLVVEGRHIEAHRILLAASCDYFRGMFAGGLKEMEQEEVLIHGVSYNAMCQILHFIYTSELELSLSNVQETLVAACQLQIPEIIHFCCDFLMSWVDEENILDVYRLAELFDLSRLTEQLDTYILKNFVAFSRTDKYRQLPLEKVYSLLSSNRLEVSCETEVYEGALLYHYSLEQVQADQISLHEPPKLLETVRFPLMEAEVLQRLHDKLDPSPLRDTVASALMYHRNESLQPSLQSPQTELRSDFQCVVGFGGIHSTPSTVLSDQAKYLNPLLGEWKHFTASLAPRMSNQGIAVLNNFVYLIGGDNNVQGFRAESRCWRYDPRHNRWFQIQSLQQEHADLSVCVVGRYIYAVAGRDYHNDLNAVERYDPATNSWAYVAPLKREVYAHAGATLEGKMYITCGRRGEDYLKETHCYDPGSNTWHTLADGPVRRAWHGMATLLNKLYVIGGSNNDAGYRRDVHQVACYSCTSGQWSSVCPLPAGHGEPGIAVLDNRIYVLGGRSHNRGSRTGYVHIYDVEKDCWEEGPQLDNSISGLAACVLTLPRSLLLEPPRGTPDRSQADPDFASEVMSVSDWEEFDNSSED
UniProt Q15223: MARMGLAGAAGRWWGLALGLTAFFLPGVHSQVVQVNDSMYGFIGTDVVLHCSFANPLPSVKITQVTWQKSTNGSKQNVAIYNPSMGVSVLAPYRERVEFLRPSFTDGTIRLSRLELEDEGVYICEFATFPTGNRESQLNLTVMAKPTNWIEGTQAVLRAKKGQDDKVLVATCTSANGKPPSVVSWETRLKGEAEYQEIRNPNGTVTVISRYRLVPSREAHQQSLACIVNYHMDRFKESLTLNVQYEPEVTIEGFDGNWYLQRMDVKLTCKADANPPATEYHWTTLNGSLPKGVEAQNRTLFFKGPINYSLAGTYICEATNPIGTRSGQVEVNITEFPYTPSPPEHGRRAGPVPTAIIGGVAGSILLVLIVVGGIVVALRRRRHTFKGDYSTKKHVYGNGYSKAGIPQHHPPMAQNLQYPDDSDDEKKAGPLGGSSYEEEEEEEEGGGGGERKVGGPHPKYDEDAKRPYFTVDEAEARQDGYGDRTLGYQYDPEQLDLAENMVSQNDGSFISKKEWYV
UniProt Q5MIZ7: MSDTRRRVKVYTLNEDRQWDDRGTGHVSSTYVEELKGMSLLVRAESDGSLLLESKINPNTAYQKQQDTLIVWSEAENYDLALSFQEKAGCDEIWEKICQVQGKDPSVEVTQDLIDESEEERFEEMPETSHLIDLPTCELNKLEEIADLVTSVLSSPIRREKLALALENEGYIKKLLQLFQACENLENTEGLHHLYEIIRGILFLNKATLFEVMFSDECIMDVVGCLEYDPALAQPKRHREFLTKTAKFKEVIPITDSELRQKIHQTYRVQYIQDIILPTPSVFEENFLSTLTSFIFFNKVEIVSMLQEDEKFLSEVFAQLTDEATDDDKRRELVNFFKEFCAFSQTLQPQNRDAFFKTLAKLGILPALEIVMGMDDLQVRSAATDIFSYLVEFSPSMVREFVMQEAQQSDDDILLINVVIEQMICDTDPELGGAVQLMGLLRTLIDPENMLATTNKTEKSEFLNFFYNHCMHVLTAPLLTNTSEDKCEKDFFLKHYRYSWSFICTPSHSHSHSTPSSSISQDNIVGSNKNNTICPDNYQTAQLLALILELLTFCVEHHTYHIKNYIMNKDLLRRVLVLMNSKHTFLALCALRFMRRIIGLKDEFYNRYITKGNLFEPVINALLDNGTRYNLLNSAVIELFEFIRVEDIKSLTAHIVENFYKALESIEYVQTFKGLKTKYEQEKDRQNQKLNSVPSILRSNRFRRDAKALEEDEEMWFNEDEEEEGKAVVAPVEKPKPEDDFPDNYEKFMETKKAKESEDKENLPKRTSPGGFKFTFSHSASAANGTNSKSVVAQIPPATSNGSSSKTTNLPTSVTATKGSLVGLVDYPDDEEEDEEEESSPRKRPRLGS
UniProt Q16566: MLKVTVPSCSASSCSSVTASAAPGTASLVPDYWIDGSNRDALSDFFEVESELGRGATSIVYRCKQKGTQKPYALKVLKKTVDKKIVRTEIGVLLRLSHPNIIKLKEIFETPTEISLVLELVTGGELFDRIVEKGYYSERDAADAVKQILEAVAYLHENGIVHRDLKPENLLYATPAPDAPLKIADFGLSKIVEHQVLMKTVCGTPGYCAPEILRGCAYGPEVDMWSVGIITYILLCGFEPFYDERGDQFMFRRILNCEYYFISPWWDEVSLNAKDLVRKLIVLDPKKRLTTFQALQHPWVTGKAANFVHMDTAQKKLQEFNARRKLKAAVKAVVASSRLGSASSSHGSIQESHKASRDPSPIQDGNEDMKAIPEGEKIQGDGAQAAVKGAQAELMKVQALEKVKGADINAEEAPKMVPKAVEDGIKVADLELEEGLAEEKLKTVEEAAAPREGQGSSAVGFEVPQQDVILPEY
UniProt Q15545, whole entry: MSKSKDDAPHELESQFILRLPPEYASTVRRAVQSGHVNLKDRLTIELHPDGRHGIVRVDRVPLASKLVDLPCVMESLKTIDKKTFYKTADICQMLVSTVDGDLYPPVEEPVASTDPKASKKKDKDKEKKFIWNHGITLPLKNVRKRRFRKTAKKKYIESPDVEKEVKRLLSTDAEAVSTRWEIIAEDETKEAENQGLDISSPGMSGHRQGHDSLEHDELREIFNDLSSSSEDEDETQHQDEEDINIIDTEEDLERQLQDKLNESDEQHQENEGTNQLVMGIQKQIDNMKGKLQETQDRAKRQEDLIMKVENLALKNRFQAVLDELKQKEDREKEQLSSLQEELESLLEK

Compound: Nc1ncnc2c1ncn2[C@@H]1O[C@H](COP(=O)(O)OP(=O)(O)NP(=O)(O)O)[C@@H](O)[C@H]1O [adenylyl imidodiphosphate]
Assay: NP40-soluble protein abundance relative to vehicle (solubility fold change) (ratio); higher = more soluble protein in presence of AMP-PNP
In short: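 Crude Jurkat lysate, prepared by Dounce homogenisation, was exposed to eight concentrations from 0.1 to 10 mM for 10 min at room temperature and then 3 min at 37 °C. Solubilisation used 0.8% NP40 with benzonase for 60 min at 4 °C, followed by ultracentrifugation and TMT labelling of the supernatant for LC-MS/MS. After vsn normalisation of intensities, each value is the fold change against the detergent-processed vehicle within each replicate, across three independent experiments.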

Target	NP40-soluble protein abundance (concentration: 1mM)	NP40-soluble protein abundance (concentration: 2mM)	NP40-soluble protein abundance (concentration: 4mM)	NP40-soluble protein abundance (concentration: 6mM)	NP40-soluble protein abundance (concentration: 8mM)	NP40-soluble protein abundance (concentration: 10mM)
Q5QPA5 and related entries (UniProt Q9NVS2)	1.01 ± 0.091	0.992 ± 0.058	0.963 ± 0.12	0.927 ± 0.15	0.929 ± 0.14	0.939 ± 0.14
UniProt Q3MHD2 and related entries	1.15 ± 0.062	1.21 ± 0.072	1.1 ± 0.07	1.08 ± 0.12	1.05 ± 0.048	1.12 ± 0.054
RARS2 (UniProt Q5T160)	0.964 ± 0.039	0.92 ± 0.061	0.963 ± 0.021	0.972 ± 0.013	0.967 ± 0.031	0.959 ± 0.048
UniProt Q15642-2|Q15642-3|Q15642-4|W4VSQ9 and related entries	1.09 ± 0.014	1.07 ± 0.036	1.07 ± 0.014	1.04 ± 0.054	1.07 ± 0.025	1.06 ± 0.065
NONO (UniProt Q15233)	1.09 ± 0.048	1.17 ± 0.064	1.22 ± 0.056	1.39 ± 0.12	1.45 ± 0.15	1.56 ± 0.18
UniProt Q5GLZ8 and related entries	0.992 ± 0.046	0.95 ± 0.042	0.984 ± 0.04	0.965 ± 0.025	0.97 ± 0.012	0.957 ± 0.017
UniProt Q2T9J0 and related entries	1.01 ± 0.016	0.995 ± 0.034	0.992 ± 0.025	0.993 ± 0.022	0.995 ± 0.0098	1 ± 0.039
PUS10 (UniProt Q3MIT2)	0.986 ± 0.05	0.954 ± 0.052	0.972 ± 0.035	0.975 ± 0.029	0.985 ± 0.053	0.965 ± 0.025
UBE3C (UniProt Q15386)	0.927 ± 0.024	0.9294 ± 0.0015	0.946 ± 0.023	0.935 ± 0.033	0.961 ± 0.026	0.957 ± 0.038
Q59H18-1|Q59H18-3|Q59H18-4|V9GXZ4 (UniProt V9GXZ4+Q59H18)	1.01 ± 0.042	0.95 ± 0.032	1.04 ± 0.17	1.09 ± 0.014	1.029 ± 0.0037	0.982 ± 0.072
UniProt Q16181 and related entries	0.9998 ± 0.0071	0.986 ± 0.021	0.963 ± 0.025	1 ± 0.0094	0.976 ± 0.031	0.98 ± 0.038
UniProt Q5JSH3 and related entries	1.02 ± 0.011	1.07 ± 0.071	1.03 ± 0.022	0.995 ± 0.027	0.974 ± 0.042	0.984 ± 0.029
TOMM34 (UniProt Q15785)	1.01 ± 0.035	1.06 ± 0.071	1 ± 0.017	1.029 ± 0.006	1.02 ± 0.016	1.05 ± 0.025
UniProt Q16643 and related entries	1.21 ± 0.09	1.24 ± 0.17	1.19 ± 0.13	1.18 ± 0.11	1.16 ± 0.094	1.26 ± 0.099
UniProt Q15669	1.02 ± 0.0095	0.976 ± 0.068	0.983 ± 0.01	0.962 ± 0.02	0.959 ± 0.018	0.951 ± 0.014
NDUFA9 (UniProt Q16795)	0.936 ± 0.015	0.876 ± 0.1	0.908 ± 0.069	0.911 ± 0.091	0.93 ± 0.097	0.884 ± 0.15
CDCA8 (UniProt Q53HL2)	1.02 ± 0.042	1.02 ± 0.019	1.02 ± 0.034	1.06 ± 0.045	1.06 ± 0.033	1.09 ± 0.031
UniProt Q2PPJ7 and related entries	1.02 ± 0.038	1.16 ± 0.18	1.03 ± 0.05	0.958 ± 0.045	0.948 ± 0.053	1.02 ± 0.12
UniProt Q2TAY7	0.996 ± 0.05	0.927 ± 0.093	1.03 ± 0.024	1.09 ± 0.043	1.17 ± 0.045	1.14 ± 0.036
FAM98C (UniProt Q17RN3)	0.976 ± 0.023	0.962 ± 0.024	0.988 ± 0.015	1.01 ± 0.029	1.02 ± 0.05	1.01 ± 0.036

A section from further up:
Target	NP40-soluble protein abundance (concentration: 1mM)	NP40-soluble protein abundance (concentration: 2mM)	NP40-soluble protein abundance (concentration: 4mM)	NP40-soluble protein abundance (concentration: 6mM)	NP40-soluble protein abundance (concentration: 8mM)	NP40-soluble protein abundance (concentration: 10mM)
UniProt Q5GLZ8 and related entries	0.992 ± 0.046	0.95 ± 0.042	0.984 ± 0.04	0.965 ± 0.025	0.97 ± 0.012	0.957 ± 0.017
UniProt Q2T9J0 and related entries	1.01 ± 0.016	0.995 ± 0.034	0.992 ± 0.025	0.993 ± 0.022	0.995 ± 0.0098	1 ± 0.039
PUS10 (UniProt Q3MIT2)	0.986 ± 0.05	0.954 ± 0.052	0.972 ± 0.035	0.975 ± 0.029	0.985 ± 0.053	0.965 ± 0.025

(further entries)

Target	NP40-soluble protein abundance (concentration: 1mM)	NP40-soluble protein abundance (concentration: 2mM)	NP40-soluble protein abundance (concentration: 4mM)	NP40-soluble protein abundance (concentration: 6mM)	NP40-soluble protein abundance (concentration: 8mM)	NP40-soluble protein abundance (concentration: 10mM)
Q5JWM4 and related entries (UniProt Q9H6P5)	1.01 ± 0.043	1.03 ± 0.066	1.03 ± 0.05	1.05 ± 0.054	1.1 ± 0.09	1.13 ± 0.066
MIA3 (UniProt Q5JRA6)	1.03 ± 0.024	1.1 ± 0.054	1.02 ± 0.018	1.01 ± 0.018	0.998 ± 0.0068	0.998 ± 0.029
Q5TCJ5 and related entries (UniProt Q9H3S1)	0.952 ± 0.018	0.949 ± 0.018	0.985 ± 0.016	0.969 ± 0.043	1.01 ± 0.019	1 ± 0.04
UniProt Q15424 and related entries	1.09 ± 0.08	1.17 ± 0.054	1.16 ± 0.097	1.23 ± 0.12	1.24 ± 0.084	1.3 ± 0.1
DNTTIP2 (UniProt Q5QJE6)	1.1 ± 0.036	1.2 ± 0.022	1.27 ± 0.06	1.34 ± 0.083	1.4 ± 0.12	1.53 ± 0.16
UniProt Q4KMQ2 and related entries	1.02 ± 0.032	1.03 ± 0.067	1.01 ± 0.041	1.02 ± 0.034	1.01 ± 0.016	0.999 ± 0.036
UniProt Q5T4S7 and related entries	0.962 ± 0.07	0.919 ± 0.095	0.943 ± 0.087	0.9 ± 0.1	0.899 ± 0.1	0.885 ± 0.13
SLC1A5 (UniProt Q15758)	0.922 ± 0.022	0.913 ± 0.037	0.925 ± 0.038	0.962 ± 0.054	0.95 ± 0.091	0.902 ± 0.039
UniProt Q15390 and related entries	1.008 ± 0.0075	1.05 ± 0.071	1.01 ± 0.02	1 ± 0.011	0.9719 ± 0.0073	0.989 ± 0.021
UniProt Q5T0B9	1.02 ± 0.017	1.03 ± 0.037	1.01 ± 0.04	0.999 ± 0.016	0.961 ± 0.028	1.02 ± 0.049
TERF2 (UniProt Q15554)	1.046 ± 0.0077	1.1 ± 0.058	1.09 ± 0.051	1.15 ± 0.045	1.14 ± 0.031	1.21 ± 0.046
OCIAD2 (UniProt Q56VL3)	0.979 ± 0.037	1.04 ± 0.081	1 ± 0.027	1.03 ± 0.076	1.01 ± 0.028	1.063 ± 0.009
TBC1D10B (UniProt Q4KMP7)	0.968 ± 0.043	0.981 ± 0.028	0.991 ± 0.029	0.978 ± 0.024	0.964 ± 0.069	0.955 ± 0.041
ELAVL1 (UniProt Q15717)	0.939 ± 0.027	0.903 ± 0.043	0.934 ± 0.017	1.01 ± 0.048	1.02 ± 0.033	0.979 ± 0.031
SAMD9 (UniProt Q5K651)	1.01 ± 0.032	0.969 ± 0.061	0.99 ± 0.031	0.951 ± 0.028	0.962 ± 0.012	0.932 ± 0.03
C2orf76 (UniProt Q3KRA6)	1.03 ± 0.039	1 ± 0.052	1.02 ± 0.034	1.02 ± 0.052	1.02 ± 0.05	1.01 ± 0.037
UniProt Q4LE39 and related entries	1.02 ± 0.064	1.069 ± 0.0038	0.996 ± 0.049	1.01 ± 0.078	0.988 ± 0.072	1.03 ± 0.072
KLHL22 (UniProt Q53GT1)	0.99 ± 0.018	0.988 ± 0.031	1.004 ± 0.01	1.002 ± 0.0011	0.991 ± 0.017	0.985 ± 0.011
UniProt Q15223	1.01 ± 0.026	1.028 ± 0.0082	1.011 ± 0.0089	1.01 ± 0.011	0.997 ± 0.023	1.01 ± 0.028
UniProt Q5T440	0.976 ± 0.022	0.925 ± 0.039	1 ± 0.04	0.99 ± 0.079	1.03 ± 0.029	1.05 ± 0.078

Target	NP40-soluble protein abundance (concentration: 1mM)	NP40-soluble protein abundance (concentration: 2mM)	NP40-soluble protein abundance (concentration: 4mM)	NP40-soluble protein abundance (concentration: 6mM)	NP40-soluble protein abundance (concentration: 8mM)	NP40-soluble protein abundance (concentration: 10mM)
UniProt Q15599 and related entries	1.01 ± 0.046	1.05 ± 0.042	1.04 ± 0.035	1.05 ± 0.038	1.04 ± 0.038	1.03 ± 0.045
UniProt Q4J6C6 and related entries	0.994 ± 0.033	0.959 ± 0.045	0.996 ± 0.033	0.974 ± 0.017	0.983 ± 0.021	0.959 ± 0.016
UniProt Q32MZ4 and related entries	1 ± 0.017	1.07 ± 0.059	0.987 ± 0.02	0.961 ± 0.025	0.9253 ± 0.0066	0.939 ± 0.027
HECTD3 (UniProt Q5T447)	0.969 ± 0.039	0.934 ± 0.072	0.962 ± 0.079	0.905 ± 0.068	0.919 ± 0.064	0.915 ± 0.1
UniProt Q5MIZ7 and related entries	1.02 ± 0.035	1 ± 0.025	0.994 ± 0.037	0.982 ± 0.062	0.973 ± 0.072	0.972 ± 0.062
CAMK4 (UniProt Q16566)	1.03 ± 0.025	1.05 ± 0.053	1.05 ± 0.017	1.02 ± 0.021	1.04 ± 0.017	1.03 ± 0.049
UniProt Q16576 and related entries	0.9259 ± 0.0056	0.918 ± 0.05	0.927 ± 0.051	0.909 ± 0.054	0.91 ± 0.034	0.873 ± 0.03
RHEB (UniProt Q15382)	1 ± 0.033	0.987 ± 0.063	0.969 ± 0.084	1.01 ± 0.011	0.974 ± 0.047	0.962 ± 0.073
AMOT (UniProt Q4VCS5)	1.01 ± 0.037	1.05 ± 0.072	1.03 ± 0.037	1.02 ± 0.03	0.991 ± 0.025	1.03 ± 0.036
TAF7 (UniProt Q15545)	1.03 ± 0.048	1.06 ± 0.015	1.03 ± 0.036	1.03 ± 0.026	1.04 ± 0.066	1.06 ± 0.057
UniProt Q15397	1.03 ± 0.03	1.08 ± 0.045	1.13 ± 0.083	1.15 ± 0.091	1.14 ± 0.07	1.24 ± 0.1
UniProt Q4G0N4	0.9766 ± 0.0049	0.966 ± 0.016	1.01 ± 0.046	1.02 ± 0.021	1.04 ± 0.0053	1.02 ± 0.019
UniProt Q15120 and related entries	0.996 ± 0.09	0.958 ± 0.12	1.03 ± 0.14	1.02 ± 0.085	1.04 ± 0.075	1.06 ± 0.12
UniProt Q16864 and related entries	1.02 ± 0.035	1.04 ± 0.037	0.983 ± 0.055	0.95 ± 0.0046	0.95 ± 0.015	0.909 ± 0.045
UniProt Q5JSZ5	1.05 ± 0.052	1.09 ± 0.035	1.09 ± 0.04	1.07 ± 0.07	1.07 ± 0.085	1.15 ± 0.059
UniProt Q15149 and related entries	1.04 ± 0.018	1.04 ± 0.033	1.05 ± 0.028	0.99 ± 0.011	0.954 ± 0.06	0.972 ± 0.046
NSDHL (UniProt Q15738)	0.968 ± 0.04	0.892 ± 0.058	0.93 ± 0.022	0.953 ± 0.045	0.964 ± 0.036	0.923 ± 0.028
MEX3C (UniProt Q5U5Q3)	0.979 ± 0.035	0.982 ± 0.032	0.976 ± 0.021	0.9737 ± 0.0065	0.9791 ± 0.0055	0.98706 ± 0.00045
UniProt Q15555 and related entries	1.04 ± 0.036	1.08 ± 0.075	0.991 ± 0.033	0.995 ± 0.016	0.968 ± 0.042	0.977 ± 0.073
EXOSC6 (UniProt Q5RKV6)	1.04 ± 0.032	1.03 ± 0.041	1.08 ± 0.018	1.12 ± 0.036	1.14 ± 0.052	1.14 ± 0.074
